Laboratory results from paper PMC4385862.
No constants are given. Whether binding was seen depends on the method and setting. Binding seen in cells or lysates may run through a third protein. Binding calls can cover weak binding; strength is not graded here.

Target: T1, chloride channel-3 (ClC-3) (human (endogenous in HeLa)) (UniProt P51790)
T1 sequence: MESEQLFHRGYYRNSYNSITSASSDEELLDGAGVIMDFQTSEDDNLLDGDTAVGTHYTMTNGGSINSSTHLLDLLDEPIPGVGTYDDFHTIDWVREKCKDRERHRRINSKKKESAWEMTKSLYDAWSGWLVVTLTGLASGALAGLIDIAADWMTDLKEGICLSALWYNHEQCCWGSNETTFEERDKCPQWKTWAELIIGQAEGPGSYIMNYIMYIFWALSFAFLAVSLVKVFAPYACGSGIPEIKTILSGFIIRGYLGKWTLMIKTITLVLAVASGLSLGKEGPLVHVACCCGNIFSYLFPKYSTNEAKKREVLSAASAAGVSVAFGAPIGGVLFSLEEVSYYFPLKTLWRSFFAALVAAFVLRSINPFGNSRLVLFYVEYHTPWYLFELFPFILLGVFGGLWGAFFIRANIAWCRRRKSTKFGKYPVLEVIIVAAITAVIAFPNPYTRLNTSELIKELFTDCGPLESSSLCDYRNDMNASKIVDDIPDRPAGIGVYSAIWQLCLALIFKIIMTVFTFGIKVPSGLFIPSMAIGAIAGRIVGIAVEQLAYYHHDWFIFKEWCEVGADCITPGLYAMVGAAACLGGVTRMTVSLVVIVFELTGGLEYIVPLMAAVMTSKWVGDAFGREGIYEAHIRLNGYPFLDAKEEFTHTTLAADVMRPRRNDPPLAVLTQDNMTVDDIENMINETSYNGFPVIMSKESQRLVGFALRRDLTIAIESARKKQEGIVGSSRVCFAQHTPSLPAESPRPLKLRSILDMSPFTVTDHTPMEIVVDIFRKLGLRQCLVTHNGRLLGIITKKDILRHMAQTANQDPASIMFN
Test: co-IP; EGF-stimulated HeLa cells transfected with wild-type or Ser→Ala mutant GFP-K18; endogenous ClC-3 and β1 integrin

| binding | Substance |
| --- | --- |
| binds | K18 Ser33→Ala mutant (GFP-K18) |
| binds | K18 Ser52→Ala mutant (GFP-K18) |
